# Test results published in the supplement of paper PMC10727501.
# The list shows a part of the results. Single values are uncertain here, since repeats match poorly.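 Researchers measured free-swimming zebrafish larvae's O-bend response probability to dark flashes (naive: first five; training: remaining flashes of four 60-flash blocks; test: later 60-flash block) and OMR turning toward alternating leftward/rightward LED motion. Six treated larvae were compared to sixty 0.1% DMSO controls, with |SSMD|≥2 marking a hit.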
# Tests used:
# Settings in all cases: 10 µM; pre-incubation: 30-90 min
# [1] = tested on: Danio rerio larvae (5 dpf, TLF); assay: OMR-Perf (SSMD vs DMSO vehicle); higher = higher than vehicle (e.g. higher dark-flash O-bend response probability, or better optomotor performance)
# [2] = tested on: Danio rerio larvae (5 dpf, TLF); assay: Prob-Test (SSMD vs DMSO vehicle); higher = higher than vehicle (e.g. higher dark-flash O-bend response probability, or better optomotor performance)
# [3] = tested on: Danio rerio larvae (5 dpf, TLF); assay: Prob-Naive (SSMD vs DMSO vehicle); higher = higher than vehicle (e.g. higher dark-flash O-bend response probability, or better optomotor performance)
# [4] = tested on: Danio rerio larvae (5 dpf, TLF); assay: Prob-Train (SSMD vs DMSO vehicle); higher = higher than vehicle (e.g. higher dark-flash O-bend response probability, or better optomotor performance)
Structure (SMILES),OMR-Perf [1],Prob-Test [2],Prob-Naive [3],Prob-Train [4]
CC(=O)O[C@@]12CO[C@@H]1C[C@@H](O)[C@@]1(C)C(=O)[C@H](O)C3=C(C)[C@@H](O)C[C@@](O)([C@@H](OC(=O)c4ccccc4)[C@H]21)C3(C)C [10-Deacetylbaccatin-III],0.0296,0.411,-0.639,-0.176
Cc1sc2c(c1C)C(c1ccc(Cl)cc1)=NC(CC(=O)Nc1ccc(O)cc1)c1nnc(C)n1-2 (configuration not stated),-0.41,-0.286,0.587,-0.363
COc1ccc(C(CN(C)C)C2(O)CCCCC2)cc1.Cl (configuration not stated) [Venlafaxine],0.822,-0.601,-0.318,-1.4
CCNC(=O)C[C@@H]1N=C(c2ccc(Cl)cc2)c2cc(OC)ccc2-n2c(C)nnc21,0.108,0.228,0.245,0.0055
CC(C)=CC1C(C(=O)OCc2cccc(Oc3ccccc3)c2)C1(C)C (configuration not stated) [Phenothrin],0.0544,0.227,0.153,0.811
Br.CN1[C@@H]2C[C@@H](OC(=O)[C@H](CO)c3ccccc3)C[C@H]1[C@@H]1O[C@@H]12 [Scopolamine HBr],0.0228,-1.19,-0.692,-0.642
CC(C)c1c(CN(C)C(C)Cc2ccccc2)n(C)n(-c2ccccc2)c1=O (configuration not stated) [Famprofazone],-1.04,-1.13,-0.706,-0.791
Cc1c(N)nc([C@H](CC(N)=O)NC[C@@H](N)C(N)=O)nc1C(=O)N[C@H](C(=O)N[C@@H](C)[C@H](O)[C@@H](C)C(=O)N[C@@H](C(=O)NCCc1nc(-c2nc(C(=O)NCCC[S+](C)C)cs2)cs1)[C@@H](C)O)C(O[C@H]1O[C@H](CO)[C@H](O)[C@@H](O)[C@H]1O[C@H]1O[C@H](CO)[C@@H](O)[C@H](OC(N)=O)[C@@H]1O)c1c[nH]cn1.O=S(=O)([O-])O (some centres not stated) [Bleomycin Sulfate],0.26,0.32,-0.0954,-0.0334

# Given with bars between the fields: part of the list above.
Structure (SMILES) | OMR-Perf [1] | Prob-Test [2] | Prob-Naive [3] | Prob-Train [4]
Cc1sc2c(c1C)C(c1ccc(Cl)cc1)=NC(CC(=O)Nc1ccc(O)cc1)c1nnc(C)n1-2 (configuration not stated) | -0.41 | -0.286 | 0.587 | -0.363
COc1ccc(C(CN(C)C)C2(O)CCCCC2)cc1.Cl (configuration not stated) [Venlafaxine] | 0.822 | -0.601 | -0.318 | -1.4
